# According to patent US6441021B1, “Sulfonated amino acid derivatives and metalloproteinase inhibitors containing the same” (Shionogi & Co., Ltd., priority 1996, dated 2002):
# Sequences of proteins named here, by UniProt entry; tags and fusion partners are left off. Residues count along the entry.
# UniProt P14780, 107-707 limits assumed: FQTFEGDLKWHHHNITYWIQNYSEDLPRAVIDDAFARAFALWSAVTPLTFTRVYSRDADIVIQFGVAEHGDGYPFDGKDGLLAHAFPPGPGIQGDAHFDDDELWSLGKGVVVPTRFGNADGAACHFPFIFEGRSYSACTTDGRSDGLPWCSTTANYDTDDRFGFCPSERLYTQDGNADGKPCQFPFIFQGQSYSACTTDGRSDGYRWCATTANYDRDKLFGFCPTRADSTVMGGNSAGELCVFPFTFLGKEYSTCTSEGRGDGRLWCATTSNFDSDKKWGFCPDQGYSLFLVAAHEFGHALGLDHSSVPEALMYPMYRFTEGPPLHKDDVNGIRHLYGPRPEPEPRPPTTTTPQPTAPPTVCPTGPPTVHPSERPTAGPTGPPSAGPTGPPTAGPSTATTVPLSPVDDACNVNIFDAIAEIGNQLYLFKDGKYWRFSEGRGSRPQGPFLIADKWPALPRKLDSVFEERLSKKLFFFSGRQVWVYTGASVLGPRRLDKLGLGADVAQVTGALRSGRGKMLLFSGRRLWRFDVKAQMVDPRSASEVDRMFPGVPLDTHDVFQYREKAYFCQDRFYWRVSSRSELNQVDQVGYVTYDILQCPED
# pIC50: −log10 of the molar value. Structures were worked out from names or drawings and are uncertain.
# Molecular target: MMP-9 (92 kDa, gelatinase B; type IV collagenase) (Homo sapiens, UniProt P14780)
# Assay: Assay of type IV collagenase inhibitors: activated MMP-9 with type IV collagenase activity kit substrate, fluorescent intensity
# Assay type: biochemical
# Conditions: inhibition of type IV collagenase (MMP-9), concentration at which percent inhibition reaches 50%
row,Structure (SMILES),pIC50
1,CSc1ccc(-c2ccc(S(=O)(=O)N[C@H](Cc3ccccc3)C(=O)O)s2)cc1,7.40
2,O=C(O)[C@@H](Cc1ccccc1)NS(=O)(=O)c1ccc(-c2ccc(F)cc2)s1,5.69
